{"sequences": {"note": "Protein sequences, listed by entry. Tags and fused reporters are not part of them.", "UniProt P80192": "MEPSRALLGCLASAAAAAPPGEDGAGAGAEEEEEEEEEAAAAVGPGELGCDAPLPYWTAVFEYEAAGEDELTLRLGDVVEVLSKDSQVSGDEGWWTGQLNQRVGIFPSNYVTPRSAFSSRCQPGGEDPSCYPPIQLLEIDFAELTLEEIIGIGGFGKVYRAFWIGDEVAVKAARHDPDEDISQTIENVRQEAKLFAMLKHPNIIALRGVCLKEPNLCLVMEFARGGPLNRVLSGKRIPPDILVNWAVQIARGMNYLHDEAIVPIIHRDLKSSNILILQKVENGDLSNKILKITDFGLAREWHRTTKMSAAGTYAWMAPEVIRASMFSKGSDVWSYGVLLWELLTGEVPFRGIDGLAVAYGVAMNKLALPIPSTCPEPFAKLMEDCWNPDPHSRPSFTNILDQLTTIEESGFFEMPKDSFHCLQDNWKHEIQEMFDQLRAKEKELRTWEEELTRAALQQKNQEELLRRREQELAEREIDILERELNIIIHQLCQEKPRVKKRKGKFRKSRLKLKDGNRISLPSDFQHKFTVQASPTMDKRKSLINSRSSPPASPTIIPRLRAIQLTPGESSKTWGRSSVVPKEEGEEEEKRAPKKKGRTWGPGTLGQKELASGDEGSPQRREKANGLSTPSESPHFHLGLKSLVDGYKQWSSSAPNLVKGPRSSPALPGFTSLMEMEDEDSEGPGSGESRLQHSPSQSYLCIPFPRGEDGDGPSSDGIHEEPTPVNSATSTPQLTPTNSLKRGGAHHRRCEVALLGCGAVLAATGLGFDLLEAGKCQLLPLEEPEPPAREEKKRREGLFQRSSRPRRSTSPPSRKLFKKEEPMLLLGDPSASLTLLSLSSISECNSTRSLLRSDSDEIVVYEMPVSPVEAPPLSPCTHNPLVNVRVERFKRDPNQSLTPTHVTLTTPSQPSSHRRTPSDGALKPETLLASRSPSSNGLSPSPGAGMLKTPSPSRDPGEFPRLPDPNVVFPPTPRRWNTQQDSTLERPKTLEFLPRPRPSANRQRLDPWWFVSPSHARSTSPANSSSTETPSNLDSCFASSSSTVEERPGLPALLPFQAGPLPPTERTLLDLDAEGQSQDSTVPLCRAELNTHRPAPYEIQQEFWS"}, "source": "paper PMC9555239", "target": "T1, PCDH20 (UniProt Q8N6Y1)", "T1 sequence": "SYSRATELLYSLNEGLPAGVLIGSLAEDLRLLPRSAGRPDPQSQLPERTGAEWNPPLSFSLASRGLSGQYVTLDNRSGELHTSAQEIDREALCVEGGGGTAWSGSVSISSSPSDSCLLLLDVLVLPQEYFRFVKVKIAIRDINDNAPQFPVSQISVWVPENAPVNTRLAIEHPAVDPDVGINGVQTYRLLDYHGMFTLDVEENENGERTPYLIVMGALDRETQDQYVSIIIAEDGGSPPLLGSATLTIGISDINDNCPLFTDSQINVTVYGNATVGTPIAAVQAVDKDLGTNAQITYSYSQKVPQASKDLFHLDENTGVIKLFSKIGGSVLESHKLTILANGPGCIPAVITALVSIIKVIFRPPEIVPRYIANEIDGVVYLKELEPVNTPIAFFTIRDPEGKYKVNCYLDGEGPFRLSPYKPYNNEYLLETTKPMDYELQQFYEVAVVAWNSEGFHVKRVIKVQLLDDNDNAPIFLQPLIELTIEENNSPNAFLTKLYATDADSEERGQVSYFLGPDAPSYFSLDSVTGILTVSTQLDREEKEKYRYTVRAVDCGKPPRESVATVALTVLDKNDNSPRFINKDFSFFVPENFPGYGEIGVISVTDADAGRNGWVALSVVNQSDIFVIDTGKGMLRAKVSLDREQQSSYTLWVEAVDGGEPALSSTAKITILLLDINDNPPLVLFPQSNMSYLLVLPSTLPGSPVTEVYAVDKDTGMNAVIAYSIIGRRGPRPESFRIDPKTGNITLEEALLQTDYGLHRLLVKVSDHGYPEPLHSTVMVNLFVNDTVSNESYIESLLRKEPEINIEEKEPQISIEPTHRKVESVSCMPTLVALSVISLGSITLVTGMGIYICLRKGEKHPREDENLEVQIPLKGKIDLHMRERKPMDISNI", "test": "co-IP; cell lysate (lytic buffer, Beyotime P0013) incubated with primary antibody overnight at 4°C, Protein G-agarose beads 2 h at 4°C, washed 3 times, Western blot; cells and precipitating antibody not named", "note": "These are yes or no findings as the source states them, for the method shown. Binding seen in cells or lysates may run through a third protein. Some entries that bind do so weakly or less than the wild type."}
{"substance": "MAP3K9 (from UniProt P80192 1-1104)", "values": [{"measurement": "binding", "value": "binds"}]}
